# Results from article doi:10.1101/2020.07.20.211441.
# Protein sequences, listed by entry. Tags and fused reporters are not part of them. Residues count along the entry.
# UniProt Q9CW03: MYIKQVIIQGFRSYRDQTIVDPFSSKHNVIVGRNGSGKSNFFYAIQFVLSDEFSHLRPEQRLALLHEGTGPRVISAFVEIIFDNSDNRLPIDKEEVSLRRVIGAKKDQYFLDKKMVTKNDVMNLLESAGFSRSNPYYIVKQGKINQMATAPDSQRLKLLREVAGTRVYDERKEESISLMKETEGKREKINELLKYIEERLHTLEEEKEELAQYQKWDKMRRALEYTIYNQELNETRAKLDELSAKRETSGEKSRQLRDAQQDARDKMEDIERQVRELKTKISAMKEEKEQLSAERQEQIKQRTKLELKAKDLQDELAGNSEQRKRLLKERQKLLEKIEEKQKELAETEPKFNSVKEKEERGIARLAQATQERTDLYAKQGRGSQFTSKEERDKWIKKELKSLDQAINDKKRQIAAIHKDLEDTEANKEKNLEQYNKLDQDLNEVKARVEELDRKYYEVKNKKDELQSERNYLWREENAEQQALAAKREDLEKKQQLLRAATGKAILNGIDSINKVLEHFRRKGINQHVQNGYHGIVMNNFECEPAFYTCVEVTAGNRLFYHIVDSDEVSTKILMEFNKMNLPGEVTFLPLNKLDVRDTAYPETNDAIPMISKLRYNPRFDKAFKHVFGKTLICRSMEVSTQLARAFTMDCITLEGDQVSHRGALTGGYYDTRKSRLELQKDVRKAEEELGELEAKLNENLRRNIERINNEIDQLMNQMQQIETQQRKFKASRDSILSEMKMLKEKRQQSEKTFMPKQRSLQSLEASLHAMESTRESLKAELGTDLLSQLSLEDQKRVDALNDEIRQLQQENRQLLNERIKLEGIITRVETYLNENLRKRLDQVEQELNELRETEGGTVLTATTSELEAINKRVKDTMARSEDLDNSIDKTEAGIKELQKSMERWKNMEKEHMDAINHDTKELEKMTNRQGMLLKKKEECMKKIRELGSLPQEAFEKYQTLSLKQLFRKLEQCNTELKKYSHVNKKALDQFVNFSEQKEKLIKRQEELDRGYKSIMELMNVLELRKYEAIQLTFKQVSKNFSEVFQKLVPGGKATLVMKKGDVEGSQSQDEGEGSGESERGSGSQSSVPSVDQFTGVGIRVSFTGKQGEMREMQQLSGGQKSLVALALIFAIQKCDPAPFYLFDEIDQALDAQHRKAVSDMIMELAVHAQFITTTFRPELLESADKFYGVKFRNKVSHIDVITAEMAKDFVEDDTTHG
# UniProt Q8BGZ4: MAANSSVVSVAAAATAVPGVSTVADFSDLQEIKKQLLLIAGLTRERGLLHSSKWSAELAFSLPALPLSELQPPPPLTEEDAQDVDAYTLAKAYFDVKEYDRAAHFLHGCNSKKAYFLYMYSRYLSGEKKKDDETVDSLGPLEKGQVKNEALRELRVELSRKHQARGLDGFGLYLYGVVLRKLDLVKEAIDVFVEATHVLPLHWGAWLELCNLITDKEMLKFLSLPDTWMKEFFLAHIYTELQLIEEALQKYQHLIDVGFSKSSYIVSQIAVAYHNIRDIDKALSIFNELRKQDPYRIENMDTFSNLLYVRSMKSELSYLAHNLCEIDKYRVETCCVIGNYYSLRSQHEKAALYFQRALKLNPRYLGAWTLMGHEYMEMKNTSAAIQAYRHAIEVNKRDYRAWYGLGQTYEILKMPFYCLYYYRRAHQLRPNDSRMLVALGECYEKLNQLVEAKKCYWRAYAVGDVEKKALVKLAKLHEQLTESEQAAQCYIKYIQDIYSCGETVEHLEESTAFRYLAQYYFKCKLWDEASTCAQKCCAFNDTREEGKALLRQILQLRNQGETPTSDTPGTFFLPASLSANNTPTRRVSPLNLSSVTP
# UniProt Q91W96: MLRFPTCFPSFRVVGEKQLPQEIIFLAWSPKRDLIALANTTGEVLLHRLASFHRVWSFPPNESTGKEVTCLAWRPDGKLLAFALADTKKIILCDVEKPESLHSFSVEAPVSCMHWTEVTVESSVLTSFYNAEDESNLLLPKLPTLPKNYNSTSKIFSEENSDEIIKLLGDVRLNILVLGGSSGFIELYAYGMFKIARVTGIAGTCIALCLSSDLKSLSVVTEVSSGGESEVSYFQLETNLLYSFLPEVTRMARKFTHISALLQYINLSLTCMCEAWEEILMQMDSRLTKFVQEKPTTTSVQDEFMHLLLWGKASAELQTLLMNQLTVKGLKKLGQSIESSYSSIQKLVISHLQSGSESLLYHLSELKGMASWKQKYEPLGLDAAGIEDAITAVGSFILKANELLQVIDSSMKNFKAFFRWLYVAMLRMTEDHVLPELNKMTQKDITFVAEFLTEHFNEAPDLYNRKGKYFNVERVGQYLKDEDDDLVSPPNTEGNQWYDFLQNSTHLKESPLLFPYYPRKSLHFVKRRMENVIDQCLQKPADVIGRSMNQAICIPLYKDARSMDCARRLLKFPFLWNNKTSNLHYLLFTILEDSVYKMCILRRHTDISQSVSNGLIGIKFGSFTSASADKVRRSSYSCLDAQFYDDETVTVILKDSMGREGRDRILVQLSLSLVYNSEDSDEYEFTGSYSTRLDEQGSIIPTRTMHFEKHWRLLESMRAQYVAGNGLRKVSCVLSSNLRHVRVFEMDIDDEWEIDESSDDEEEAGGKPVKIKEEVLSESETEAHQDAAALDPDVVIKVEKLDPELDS
# UniProt Q8BZQ7: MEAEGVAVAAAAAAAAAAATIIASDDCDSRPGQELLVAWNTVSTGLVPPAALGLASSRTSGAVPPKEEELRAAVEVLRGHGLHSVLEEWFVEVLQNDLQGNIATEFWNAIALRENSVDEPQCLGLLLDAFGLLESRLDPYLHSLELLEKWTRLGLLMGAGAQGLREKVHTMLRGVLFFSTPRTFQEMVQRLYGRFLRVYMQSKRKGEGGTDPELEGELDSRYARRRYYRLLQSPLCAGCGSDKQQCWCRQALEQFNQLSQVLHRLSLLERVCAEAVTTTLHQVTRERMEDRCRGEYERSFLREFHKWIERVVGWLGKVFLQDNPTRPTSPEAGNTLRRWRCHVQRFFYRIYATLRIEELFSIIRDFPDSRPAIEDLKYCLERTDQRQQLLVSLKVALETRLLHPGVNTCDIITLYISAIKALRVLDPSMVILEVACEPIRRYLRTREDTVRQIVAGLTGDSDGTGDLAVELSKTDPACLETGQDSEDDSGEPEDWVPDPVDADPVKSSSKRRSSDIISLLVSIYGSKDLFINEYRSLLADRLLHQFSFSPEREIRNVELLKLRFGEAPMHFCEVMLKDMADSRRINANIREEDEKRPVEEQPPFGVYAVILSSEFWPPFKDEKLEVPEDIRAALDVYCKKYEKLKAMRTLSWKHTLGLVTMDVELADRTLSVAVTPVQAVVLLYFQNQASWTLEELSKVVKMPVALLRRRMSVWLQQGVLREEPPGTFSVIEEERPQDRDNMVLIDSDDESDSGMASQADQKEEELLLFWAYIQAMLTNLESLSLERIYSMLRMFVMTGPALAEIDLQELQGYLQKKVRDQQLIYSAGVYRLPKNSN
# UniProt Q9R1K5: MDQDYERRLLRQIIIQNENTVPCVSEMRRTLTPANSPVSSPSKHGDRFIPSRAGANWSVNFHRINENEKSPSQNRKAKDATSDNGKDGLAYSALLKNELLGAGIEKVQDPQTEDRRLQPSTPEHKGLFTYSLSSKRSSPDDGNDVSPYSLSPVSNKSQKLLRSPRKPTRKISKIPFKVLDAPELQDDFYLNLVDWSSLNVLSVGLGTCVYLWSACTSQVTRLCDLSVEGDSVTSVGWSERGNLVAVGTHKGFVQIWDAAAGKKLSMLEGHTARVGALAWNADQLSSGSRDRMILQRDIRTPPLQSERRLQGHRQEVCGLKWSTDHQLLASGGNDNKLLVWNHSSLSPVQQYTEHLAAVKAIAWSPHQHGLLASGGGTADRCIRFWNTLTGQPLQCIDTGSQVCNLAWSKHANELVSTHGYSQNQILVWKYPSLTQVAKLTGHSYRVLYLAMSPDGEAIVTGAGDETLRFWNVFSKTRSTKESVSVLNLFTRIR
# UniProt Q9QY81, residues 27-1886: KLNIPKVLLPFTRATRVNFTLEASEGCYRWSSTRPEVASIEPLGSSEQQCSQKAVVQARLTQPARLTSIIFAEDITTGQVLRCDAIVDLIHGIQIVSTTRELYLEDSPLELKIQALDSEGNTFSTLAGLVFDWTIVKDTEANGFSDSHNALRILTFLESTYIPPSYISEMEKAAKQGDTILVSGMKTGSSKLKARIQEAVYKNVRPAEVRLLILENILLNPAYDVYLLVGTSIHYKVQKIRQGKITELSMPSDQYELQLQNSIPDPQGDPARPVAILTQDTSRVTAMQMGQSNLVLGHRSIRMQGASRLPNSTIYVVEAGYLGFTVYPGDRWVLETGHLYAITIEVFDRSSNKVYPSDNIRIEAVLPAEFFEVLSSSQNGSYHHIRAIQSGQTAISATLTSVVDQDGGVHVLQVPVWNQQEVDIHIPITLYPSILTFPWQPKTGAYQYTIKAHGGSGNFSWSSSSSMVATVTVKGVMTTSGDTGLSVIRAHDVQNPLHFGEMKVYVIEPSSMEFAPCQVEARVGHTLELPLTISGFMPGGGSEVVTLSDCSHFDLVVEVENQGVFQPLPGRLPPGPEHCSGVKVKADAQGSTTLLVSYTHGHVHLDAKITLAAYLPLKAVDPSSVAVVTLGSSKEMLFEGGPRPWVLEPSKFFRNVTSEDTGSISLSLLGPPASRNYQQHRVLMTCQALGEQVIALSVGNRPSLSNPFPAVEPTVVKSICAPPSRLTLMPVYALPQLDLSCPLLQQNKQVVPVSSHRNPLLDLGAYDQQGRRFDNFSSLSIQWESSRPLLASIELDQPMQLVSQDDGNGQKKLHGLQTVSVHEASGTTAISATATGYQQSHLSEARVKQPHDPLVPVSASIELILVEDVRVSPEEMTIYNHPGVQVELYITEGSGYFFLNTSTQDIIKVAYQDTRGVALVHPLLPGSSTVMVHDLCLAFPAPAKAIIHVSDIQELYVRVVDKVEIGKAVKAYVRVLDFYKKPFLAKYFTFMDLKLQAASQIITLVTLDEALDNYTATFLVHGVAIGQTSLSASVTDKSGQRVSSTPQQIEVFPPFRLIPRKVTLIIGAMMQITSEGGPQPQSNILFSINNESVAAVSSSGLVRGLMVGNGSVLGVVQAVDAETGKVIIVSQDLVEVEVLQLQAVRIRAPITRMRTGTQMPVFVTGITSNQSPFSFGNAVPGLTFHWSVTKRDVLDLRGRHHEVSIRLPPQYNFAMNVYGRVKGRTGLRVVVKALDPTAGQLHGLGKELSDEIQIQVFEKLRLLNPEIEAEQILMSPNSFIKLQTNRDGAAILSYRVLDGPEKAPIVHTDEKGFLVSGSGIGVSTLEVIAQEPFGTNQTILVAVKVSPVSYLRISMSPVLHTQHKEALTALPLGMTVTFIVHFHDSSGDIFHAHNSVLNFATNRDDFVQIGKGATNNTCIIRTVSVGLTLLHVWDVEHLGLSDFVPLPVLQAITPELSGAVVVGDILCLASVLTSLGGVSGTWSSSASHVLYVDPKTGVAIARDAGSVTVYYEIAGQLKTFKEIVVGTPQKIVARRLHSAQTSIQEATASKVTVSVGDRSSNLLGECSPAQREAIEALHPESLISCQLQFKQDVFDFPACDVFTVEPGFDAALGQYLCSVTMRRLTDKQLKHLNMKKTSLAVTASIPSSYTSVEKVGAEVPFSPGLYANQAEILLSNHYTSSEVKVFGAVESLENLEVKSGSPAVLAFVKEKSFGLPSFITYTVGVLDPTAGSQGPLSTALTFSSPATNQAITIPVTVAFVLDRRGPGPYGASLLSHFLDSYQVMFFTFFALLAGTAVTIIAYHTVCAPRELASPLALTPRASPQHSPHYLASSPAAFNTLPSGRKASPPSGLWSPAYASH
# UniProt Q9WVM3: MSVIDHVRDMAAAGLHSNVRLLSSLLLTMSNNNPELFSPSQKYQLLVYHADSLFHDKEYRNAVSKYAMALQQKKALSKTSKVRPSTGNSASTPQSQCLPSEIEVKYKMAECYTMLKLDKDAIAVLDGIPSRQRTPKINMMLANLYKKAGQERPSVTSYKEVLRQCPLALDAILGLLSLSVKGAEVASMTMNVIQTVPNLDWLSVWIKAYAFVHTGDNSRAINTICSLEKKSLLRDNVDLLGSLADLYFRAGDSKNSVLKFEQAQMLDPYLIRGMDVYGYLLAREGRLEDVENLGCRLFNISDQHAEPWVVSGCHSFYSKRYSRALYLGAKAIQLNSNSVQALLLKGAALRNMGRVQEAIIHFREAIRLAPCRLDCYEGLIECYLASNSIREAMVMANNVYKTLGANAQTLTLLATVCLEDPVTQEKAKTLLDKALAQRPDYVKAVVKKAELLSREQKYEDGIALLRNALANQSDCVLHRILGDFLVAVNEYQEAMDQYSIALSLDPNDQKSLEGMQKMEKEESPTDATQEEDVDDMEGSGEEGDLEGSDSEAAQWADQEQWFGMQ
# T1: XPA-binding protein (XAB)-2, biotin-tagged knock-in (mouse) (UniProt Q9DCD2)
# T1 sequence (chain, biotin on the Avitag (by the BirA ligase in vivo)): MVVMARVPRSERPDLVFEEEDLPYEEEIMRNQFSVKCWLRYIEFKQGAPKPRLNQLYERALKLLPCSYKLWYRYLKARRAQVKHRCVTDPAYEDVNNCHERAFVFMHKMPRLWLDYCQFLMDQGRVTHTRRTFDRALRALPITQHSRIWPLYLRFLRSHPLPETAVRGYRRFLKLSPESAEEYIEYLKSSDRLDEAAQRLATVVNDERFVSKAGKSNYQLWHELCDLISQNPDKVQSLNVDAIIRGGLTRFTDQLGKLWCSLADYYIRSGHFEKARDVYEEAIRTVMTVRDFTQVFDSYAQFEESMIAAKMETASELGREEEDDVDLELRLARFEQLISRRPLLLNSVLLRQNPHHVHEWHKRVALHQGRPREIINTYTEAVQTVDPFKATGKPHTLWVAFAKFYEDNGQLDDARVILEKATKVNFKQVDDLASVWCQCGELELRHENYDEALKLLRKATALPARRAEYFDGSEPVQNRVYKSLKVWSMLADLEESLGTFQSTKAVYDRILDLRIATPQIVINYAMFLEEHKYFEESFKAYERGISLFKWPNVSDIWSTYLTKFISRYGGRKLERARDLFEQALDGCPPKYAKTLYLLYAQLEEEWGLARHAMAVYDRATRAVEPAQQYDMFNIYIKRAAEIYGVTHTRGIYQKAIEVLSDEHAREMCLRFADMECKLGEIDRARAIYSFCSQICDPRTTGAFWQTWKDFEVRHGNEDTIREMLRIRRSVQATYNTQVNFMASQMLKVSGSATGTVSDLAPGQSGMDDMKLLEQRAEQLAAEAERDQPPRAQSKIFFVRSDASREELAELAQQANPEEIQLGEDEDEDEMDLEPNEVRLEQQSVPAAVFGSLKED
# Target: T1, XPA-binding protein (XAB)-2, biotin-tagged knock-in (mouse)
# Experiment: affinity purification with mass spectrometry
row,Molecule,binding
1,SMC3 (from UniProt Q9CW03 1-1217),binds
2,CDC23 (from UniProt Q8BGZ4 1-597),binds
3,ANAPC1 (from UniProt P53995 1-1944),binds
4,pre-mRNA-processing factor 19 (from UniProt Q99KP6 1-504),binds
5,BMS1 (from UniProt Q6PGF5 1-1284),binds
6,ANAPC 4 (from UniProt Q91W96 1-807),binds
7,ANAPC 5 (from UniProt Q8BTZ4 1-740),binds
8,WDR36 (mouse (endogenous in P15 liver)),binds
9,NUP205 (mouse (endogenous in P15 liver)),binds
10,ANAPC 2 (from UniProt Q8BZQ7 1-837),binds
11,"NUP50 (protein, UniProt Q9JIH2 1-466) MAKRVAEKELTDRNWDEEDEVEEMGTFSVASEEVMKNRAVKKAKRRNVGFESDSGGAFKGFKGLVVPSGGGGFSGFGGSGGKPLEGLTNGNSTDNATPFSNVKTAAEPKAAFGSFAVNGPTTLVDKKISSPKCNNSNQPPSSGPASSTACPGNAYHKQLAGLNCSVRDWIVKHVNTNPLCDLTPIFKDYERYLATIEKQLENGGGSSSESQTDRATAGMEPPSLFGSTKLQQESPFSFHGNKAEDTSEKVEFTAEKKSDAAQGATSASFSFGKKIESSALGSLSSGSLTGFSFSAGSSSLFGKDAAQSKAASSLFSAKASESPAGGGSSECRDGEEEENDEPPKVVVTEVKEEDAFYSKKCKLFYKKDNEFKEKGVGTLHLKPTATQKTQLLVRADTNLGNILLNVLIAPNMPCTRTGKNNVLIVCVPNPPLDEKQPTLPATMLIRVKTSEDADELHKILLEKKDA",binds

# The remaining lines, values ahead:
row,binding,Molecule
1,binds,FZR1 (from UniProt Q9R1K5 1-493)
2,binds,NUP210 (from UniProt Q9QY81 27-1886)
3,binds,CDC27 (from UniProt A2A6Q5 1-825)
4,binds,MDN1 (mouse (endogenous in P15 liver))
5,binds,ANAPC 7 (from UniProt Q9WVM3 1-565)
6,binds,"NUP153 (protein, UniProt E9Q3G8 1-1462) MASEAGGIGGGGGGGKIRTRRCHQGPVKPYQQGRPQHQGILSRVTESVKNIVPGWLQRYFNKSENACSCSPDADEVPPWPENREDEHAIYADENTNTDDGRITPDPAGSNTEEPSTTSTASNYPDVLTRPSLHRSHLNFSVLESPALHCQPSTSSAFPIGSSGFSLVKEIKDSTSQHDDDNISTTSGFSSRASEKDIAVSKNTSLPPLWSPEAERSHSLSQHTAISSKKPAFNLSAFGTLSTSLGNSSILKTSQLGDSPFYPGKTTYGGAAAAVRQNKVRSTPYQAPVRRQMKAKQLNAQSYGVTSSTARRILQSLEKMSSPLADAKRIPSAVSSPLNSPLDRSGIDNTVFQAKKEKVDSQYPPVQRLMTPKPVSIATNRTVYFKPSLTPSGDLRKTNQRIDKKNSTVDEKSISRQNREQESGFSYPNFSIPAANGLSSGVGGGGGKMRRERTHFVAPKPPENEEVEAPLLPQISLPISSSSLPTFSFSSPVTSASPSPVSSSQPLPNKVQMTSLGSTGSPVFTFSSPIVKSTQAAVLPPASIGFTFSVPLAKTEFSGSNSSSETVLSSSAQDITAVNSSSYKKRSAPCEDPFTPAKILREGSVLDILKTPGFASPKVDSPALQPTTTSSIVYTRPAISTFSSSGIEYGESLKAGSSWQCDTCLLQNKVTDNKCIACQAAKLPLKETAKQTGTGTPSKSDKPASTSGTGFGDKFKPAIGTWDCDTCLVQNKPEAVKCVACETPKPGTGVKRALTLTVASESPVTASSSTTVTTGTLGFGDKFKRPVGSWECPVCCVCNKAEDNRCVSCTSEKPGLVSASSSSPAPVSLSSGGCLGLDKFKKPEGSWDCEVCLVQNKADSAKCIACESAKPGTKSEFKGFGTSSSLNPAPSAFKFGIPSSSSGLSQTLTSTGNFKFGDQGGFKLGTSSDSGSTNTMNTNFKFSKPTGDFKFGVLSDSKPEEVKNDNKNDNFQFGSSSGLTNPASSAPFQFGVSTLGQQEKKEELPKSSPAGFSFGAGVNNPPNAAIDTTATSENKSGFNFGTLDTKSVSVTPFTYKTTEAKKEDAPATKGGFTFGKVGSSSLPSSSMFVLGRTEEKQQEPVTSTSLVFGKKADSEEPKCQPVFSFGNSEQTKDESSKPTFSFSVAKPSGKESEQLAKATFAFGNQTNTTTDQGAAKPVFSFLNSSSSSSSAPATSSSGGIFGSSTSSSNPPVAAFVFGQASNPVSSSAFGNAAESSTSQSLLFPQESEPATTSSTAPAASPFVFGTGASSNSVSSGFTFGATTTSSSSGSSFVFGTGHSAPSASPAFGANQTPTFGQSQGASQPNPPSFGSISSSTALFSAGSQPVPPPIFGTVSSSSQPPVFGQQPSQSAFGSGTANASSVFQFGSSTTNFNFTNNNPSGVFTFGASPSTPAASAQPSGSGVFSFSQSPASFTVGSNGKNMFSSSGTSVSGRKIKTAVRRKK"
7,binds,"NUP133 (protein, UniProt Q8R0G9 1-1155) MFPSVSSPRTPGPGTRRGPLVGIGPTSTPRASRRGLSLGSAVNSPVLFSPAGRRSSVSSRGTPTRIFPHHSISESVNYDVRVFGSSLPVKIMEALTMAEADEQLSVHVDEGGWACLVCTEKLLIWKIAVSPVTKLSVCKELQLPPSDFHGSADLVALSYAATSGEVHSVQAVSVMVATKEGSIRYWPSLAREDTYSDTCVDLGGEKMCRFLTAVQGGSFILSSVGSQLVRLIPESSGKIHQHVLPQGQGMLSGIGRRVSSLFGILSPTSDLMLASVLWDRGGSSFYTLTSSNISKWELDDSSEKQVHSWDVHRTLKESITDAVWGSESNYEAIKEGVNIQYLDLKQNCDGLLILAAAWHLGDSPCLVYYSVITVEDNGNQMSDAVTVEVTQYNPPFQSEDLIACRLMVPNFSSQMTYLYMENAVFVCSTGTGKFSLPQEKIVFDTQGDGILGAGSCAGVPILFSRNSGLVSVTPRENVSLLAEDLEESLTSSVGGRGSESMVFETTTKNETVAHEDKTKLLKAAFLQYCRKDLGRAQIMADELFSSHTDLDSDPELDKAVTQISVDLIDDYPASDPRWAESVPQEAPGLSNTSLIILHQLEDKMKAHCLLVDFLHQVGLFRRLSSYPIRGTPMSTRLLLCEHAEKLSAAITLKNHHSRLPDLVNSAILLALNKRECEVPNSLTPADVFFREVSQVDTICECLLEHEEQVLREVALVSQEWAEVAIDVNTVLKDMLQAATHYRLNKSSMYSQEEVLGKEPEYVPWTATSGPSGIRTAVMRQHGIILKMVYPQADSKLRNVVMEQLVALIDCFLDSYVSQLKSLEKSSDQERYSSLEVEYLQKRSELLSPLLTLGQYPWAASLAEKYCDFDILVQMCEQTDNQARLQRYMTQFADQNFSDFLFRWYLEKGKRGKLLSQPISQHGQLANFLQAHEHLSWLHEINSQELEKAHTTLLGLANMETRYFAKKKTLLGLSKLAALASDISEDRLQEKIEAMAEQERFLLHQETLPEQLLTERQLSLSAMPVLTAPQLISLYICDENRRANEYDFKKALDLLEYIDEEEDVSIDDLKLEILCRALQRDDWSGSDGKDDPIEVSKDSVFVKILQKLIKDGIQLSEYLPEVTDLLRAEQLGSLKSNSYFEFVLKANYEYYVQGQM"
8,binds,"NUP160 (protein, UniProt Q9Z0W3 1-1402) MAAAGSLERSFVELSGAERERPRHFREFTVCDIGTASAAFGTVKYSESAGGFYYVESGKLFSITRNRFIHWKTSGDTLELVEESLDLNLLNNAVRLKFQNYNILPGGVHVSETQNHVIILILTNQTVHRLILPHPSRMYRSELVTESQMQSIFTDIGKVDFRDPCNSQLIPSVPGLSPGSTTSAAWLSSDGEALFALPSASGGIFVLKLPPYDVPGIASVVELKQSSVMQRLLTGWMPTAIRGDHGPSDRALSLAVHCVEHDAFIFALCQDHKLRMWSYKDQMCLMVADMLEYVPVNKDLRLTAGTGHKLRLAYSPSMGLYLGIYMHAPKRGQFCVFQLVSTENNRYSLDHISSLFTSQETLVDFALTSTDIWALWHDAENQTIVKYINFEHNVAGQWNPVFMQPLPEEEIVIRDDQDPREMYLRSLFTPGHFINAALCKALQIFCRGTERNLDLSWNELKKEITLAVENELQGSVTEYEFSQDEFRTLQQEFWCKFYACVLQYQEALSHPLALHLNPVTNMVCLLKKGYLSFLVPSSLVDHLYLLPDEHLLTEDETTISDDADVARDVLCLIKCLRMIGESVTMDMAVLMETSCYNLQSPEKAAEHILEDLITIDVENVMEDICSKLQEIRNPVHAIGLLIREMDYETEVEMEKGFDPAQPLNVRMNLSQLYGSSTAGYIVCRGVYKIASTRFLICRDLLILQQLLTRLGDAVILGAGQLFQAQQDLLHRTAPLLLSYYLIKWASQCLATDVPVDTLESNLQHLSVLELTDSGALMANKLVSSPQTIMELFFQEVARKQIISHLFSQPKAPLSQTGLNWPEMITAVTGYLLQLLWPSNPGCLFLECLMGNCQYVQLQDYIQLLHPWCQVNVGSCRFMLGRCYLVTGEVQKALECFCQAASEVGKEEFLDRLIRSEDGEIVSTPKLQYYDKVLRLLDVVGLPELVIQLATSAITEAGDDWKSQATLRTCIFKHHLDLGHNSQAYEALTQIPDSSRQLDCLRQLVVVLCERSQLQDLVEFPYVNLHNEVVGIIESRARAVDLMTHNYYELLYAFHIYRHNYRKAGTVMFEYGMRLGREVRTLRGLEKQGNCYLAAINCLRLIRPEYAWIVQPASGAVSDRPGASPKRNHDGECTAAPTNRQIEILELEDLEKEYSLARIRLTLARHDPSVIAIAGSSSAKEMSALLVQAGLFDTAISLCQTFTLPLTPVFEGLAFKCIKLQFGGEAAQGEAWSWLATNQLSSVITTKESSATDEAWRLLSTYLERYKVQNNLYHHCVINKLLSHGVPLPNWLINSYKKVDAAELLRLYLNYDLLEEAVDLVSEYVDAVLGKGHQYFGIEFPLSATAPMVWLPYSSIDQLLQALGENSANSHNIILSQKILDKLEDYQQKVDKATRDLLYRRDL"

# No constants are given. Whether binding was seen depends on the method and setting. Binding seen in cells or lysates may run through a third protein. Here binding means that the protein was enriched with, or labelled near, the bait; the list need not be complete. Tags and fused reporters may be left off the sequences shown.
